The target of one experiment is Tdk1 (S. pombe) (UniProt O74876). Briefly: two-hybrid; Matchmaker Gold Yeast Two-Hybrid System (Clontech); bait and prey co-expressed, selected on SD/-Leu/-Trp, spotted on SD/-Leu/-Trp/-His/-Ade (HIS3 and ADE2 reporters), 30°C, 2-4 days.
For another experiment, the target named is T1, Bdf1 (S. pombe) (UniProt Q9Y7N0).
T1 sequence: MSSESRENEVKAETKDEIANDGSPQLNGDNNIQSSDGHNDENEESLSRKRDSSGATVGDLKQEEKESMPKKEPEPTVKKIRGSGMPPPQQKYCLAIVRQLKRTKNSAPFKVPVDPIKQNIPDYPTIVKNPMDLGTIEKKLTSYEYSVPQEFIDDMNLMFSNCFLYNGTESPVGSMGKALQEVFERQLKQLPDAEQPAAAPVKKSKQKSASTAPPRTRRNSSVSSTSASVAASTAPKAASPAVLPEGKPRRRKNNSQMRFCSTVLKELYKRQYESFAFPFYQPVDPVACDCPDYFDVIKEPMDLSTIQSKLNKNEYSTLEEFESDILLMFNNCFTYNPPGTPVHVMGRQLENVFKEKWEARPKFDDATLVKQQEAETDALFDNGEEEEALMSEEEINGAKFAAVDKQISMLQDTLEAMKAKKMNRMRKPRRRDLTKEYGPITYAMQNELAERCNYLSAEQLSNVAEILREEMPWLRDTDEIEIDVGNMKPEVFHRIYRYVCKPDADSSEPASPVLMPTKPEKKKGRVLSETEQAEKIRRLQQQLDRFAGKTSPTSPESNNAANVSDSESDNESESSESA
The experiment is described as above.

Sequences of proteins named here, by UniProt entry; tags and fusion partners are left off. A change or cut given only in a name is not applied to a line headed by its entry.
UniProt O74876: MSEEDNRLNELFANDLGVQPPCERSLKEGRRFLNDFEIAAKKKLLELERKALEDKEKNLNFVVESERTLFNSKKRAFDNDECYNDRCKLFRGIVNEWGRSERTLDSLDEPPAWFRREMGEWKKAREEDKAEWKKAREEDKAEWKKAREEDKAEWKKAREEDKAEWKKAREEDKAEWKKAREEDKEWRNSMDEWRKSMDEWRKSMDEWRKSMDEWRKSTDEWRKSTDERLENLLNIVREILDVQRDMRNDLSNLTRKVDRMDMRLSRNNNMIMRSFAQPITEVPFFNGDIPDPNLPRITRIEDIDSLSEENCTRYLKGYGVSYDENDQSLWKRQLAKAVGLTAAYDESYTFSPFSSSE

Results are given in words; binding and its absence hold for the method and conditions named. Some results given as binding are weak or reduced against the parent protein; the word gives no strength.

Turning to Tdk1 (from UniProt O74876 1-357), the binding result with Tdk1 (S. pombe) was “binds”.

For “C-terminal fragment of Tdk1 (Tdk1C, residues 227–357) (from UniProt O74876 227-357) (domain or fragment)”, the binding result with Bdf1 (S. pombe) was “binds”.

(Values after publication doi:10.64898/2025.12.28.696746.)
